Laboratory results published in the supplement of paper PMC10849652.
The other results are listed elsewhere or left out.

Amino acid sequences for entries named in this document (tags omitted). A change or cut given only in a name is not applied to a line headed by its entry.
UniProt P61088: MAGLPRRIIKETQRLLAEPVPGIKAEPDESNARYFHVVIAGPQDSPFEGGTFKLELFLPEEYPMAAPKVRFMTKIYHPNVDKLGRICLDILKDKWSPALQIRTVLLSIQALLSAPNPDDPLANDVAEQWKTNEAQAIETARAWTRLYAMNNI
UniProt P0DPH7, whole entry, looked up: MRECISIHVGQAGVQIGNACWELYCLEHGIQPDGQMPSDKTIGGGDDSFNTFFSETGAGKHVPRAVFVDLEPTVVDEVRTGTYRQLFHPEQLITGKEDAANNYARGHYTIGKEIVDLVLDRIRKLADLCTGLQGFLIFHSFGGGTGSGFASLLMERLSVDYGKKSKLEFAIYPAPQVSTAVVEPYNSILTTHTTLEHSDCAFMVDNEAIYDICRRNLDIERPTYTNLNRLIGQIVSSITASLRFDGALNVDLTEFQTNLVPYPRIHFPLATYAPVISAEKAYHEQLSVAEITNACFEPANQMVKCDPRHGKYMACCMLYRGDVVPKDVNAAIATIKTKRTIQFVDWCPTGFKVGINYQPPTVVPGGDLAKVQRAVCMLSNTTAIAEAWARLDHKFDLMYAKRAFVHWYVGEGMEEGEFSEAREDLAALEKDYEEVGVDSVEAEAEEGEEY
UniProt Q9UBT2: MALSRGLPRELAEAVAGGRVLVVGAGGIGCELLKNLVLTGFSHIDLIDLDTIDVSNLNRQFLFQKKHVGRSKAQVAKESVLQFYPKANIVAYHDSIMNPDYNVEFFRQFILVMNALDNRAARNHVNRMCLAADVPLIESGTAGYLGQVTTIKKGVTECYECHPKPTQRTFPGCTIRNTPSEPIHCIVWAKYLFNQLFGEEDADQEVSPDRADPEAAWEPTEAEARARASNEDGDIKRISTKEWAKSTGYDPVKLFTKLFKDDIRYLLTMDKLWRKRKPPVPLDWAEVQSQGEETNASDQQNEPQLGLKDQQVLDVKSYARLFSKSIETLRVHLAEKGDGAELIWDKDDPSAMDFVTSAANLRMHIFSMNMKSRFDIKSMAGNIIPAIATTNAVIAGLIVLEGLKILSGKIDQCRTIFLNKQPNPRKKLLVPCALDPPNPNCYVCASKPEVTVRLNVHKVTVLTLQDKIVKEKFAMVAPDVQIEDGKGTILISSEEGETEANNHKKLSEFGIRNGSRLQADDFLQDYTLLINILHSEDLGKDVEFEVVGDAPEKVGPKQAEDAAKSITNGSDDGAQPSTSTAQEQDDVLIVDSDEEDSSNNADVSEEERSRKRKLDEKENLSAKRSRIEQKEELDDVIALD
UniProt O95881: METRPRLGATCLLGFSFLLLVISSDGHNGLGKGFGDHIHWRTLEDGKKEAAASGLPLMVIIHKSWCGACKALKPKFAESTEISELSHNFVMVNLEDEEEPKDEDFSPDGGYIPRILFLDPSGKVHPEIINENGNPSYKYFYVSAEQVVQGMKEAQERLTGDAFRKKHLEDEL
UniProt P04818: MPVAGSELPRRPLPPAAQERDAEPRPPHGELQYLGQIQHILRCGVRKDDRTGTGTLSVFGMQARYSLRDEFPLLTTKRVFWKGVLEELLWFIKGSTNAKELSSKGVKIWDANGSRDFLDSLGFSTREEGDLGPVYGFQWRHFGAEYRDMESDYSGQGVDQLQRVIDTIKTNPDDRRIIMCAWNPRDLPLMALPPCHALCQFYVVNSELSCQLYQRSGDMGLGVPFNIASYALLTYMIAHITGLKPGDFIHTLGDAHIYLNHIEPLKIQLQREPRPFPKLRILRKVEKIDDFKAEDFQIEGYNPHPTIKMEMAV
UniProt P68371, whole entry, looked up: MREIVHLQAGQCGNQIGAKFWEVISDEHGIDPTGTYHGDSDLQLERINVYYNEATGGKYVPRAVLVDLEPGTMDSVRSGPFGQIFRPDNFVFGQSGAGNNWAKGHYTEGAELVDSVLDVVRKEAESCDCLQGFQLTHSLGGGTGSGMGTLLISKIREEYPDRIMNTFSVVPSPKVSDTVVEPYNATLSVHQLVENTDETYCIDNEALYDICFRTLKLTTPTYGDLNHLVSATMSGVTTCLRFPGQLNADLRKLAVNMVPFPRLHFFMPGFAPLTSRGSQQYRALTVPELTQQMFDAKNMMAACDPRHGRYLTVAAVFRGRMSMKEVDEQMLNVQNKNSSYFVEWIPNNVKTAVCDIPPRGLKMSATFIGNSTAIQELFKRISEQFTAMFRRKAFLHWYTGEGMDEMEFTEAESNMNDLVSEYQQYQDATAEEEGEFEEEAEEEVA
UniProt Q9GZZ9, whole entry, looked up: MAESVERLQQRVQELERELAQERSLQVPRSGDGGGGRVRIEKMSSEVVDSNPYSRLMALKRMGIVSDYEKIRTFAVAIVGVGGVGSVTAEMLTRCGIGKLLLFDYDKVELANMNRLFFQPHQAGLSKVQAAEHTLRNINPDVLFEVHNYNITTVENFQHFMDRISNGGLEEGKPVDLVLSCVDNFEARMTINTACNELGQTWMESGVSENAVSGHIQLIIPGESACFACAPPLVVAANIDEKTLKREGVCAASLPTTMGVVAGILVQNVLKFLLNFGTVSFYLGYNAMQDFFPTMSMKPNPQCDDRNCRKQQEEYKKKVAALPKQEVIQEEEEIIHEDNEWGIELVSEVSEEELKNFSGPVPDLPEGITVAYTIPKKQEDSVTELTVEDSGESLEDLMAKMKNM
UniProt P83876: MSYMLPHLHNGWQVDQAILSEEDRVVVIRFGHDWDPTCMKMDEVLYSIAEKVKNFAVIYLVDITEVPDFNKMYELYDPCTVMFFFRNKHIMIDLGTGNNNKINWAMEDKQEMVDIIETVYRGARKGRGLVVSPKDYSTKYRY
UniProt Q99598: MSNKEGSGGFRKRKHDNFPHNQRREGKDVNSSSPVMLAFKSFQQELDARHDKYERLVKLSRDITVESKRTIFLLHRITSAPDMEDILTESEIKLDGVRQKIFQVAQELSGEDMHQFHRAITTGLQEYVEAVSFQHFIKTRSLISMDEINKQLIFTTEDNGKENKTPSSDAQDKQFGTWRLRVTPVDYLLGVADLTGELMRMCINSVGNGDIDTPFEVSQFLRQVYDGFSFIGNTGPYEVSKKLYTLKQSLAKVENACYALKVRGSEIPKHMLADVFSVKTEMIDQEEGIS
UniProt P10599: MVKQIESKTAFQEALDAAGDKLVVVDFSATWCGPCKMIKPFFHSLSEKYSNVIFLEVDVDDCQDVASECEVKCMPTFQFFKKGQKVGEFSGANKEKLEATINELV
UniProt Q9Y5U2: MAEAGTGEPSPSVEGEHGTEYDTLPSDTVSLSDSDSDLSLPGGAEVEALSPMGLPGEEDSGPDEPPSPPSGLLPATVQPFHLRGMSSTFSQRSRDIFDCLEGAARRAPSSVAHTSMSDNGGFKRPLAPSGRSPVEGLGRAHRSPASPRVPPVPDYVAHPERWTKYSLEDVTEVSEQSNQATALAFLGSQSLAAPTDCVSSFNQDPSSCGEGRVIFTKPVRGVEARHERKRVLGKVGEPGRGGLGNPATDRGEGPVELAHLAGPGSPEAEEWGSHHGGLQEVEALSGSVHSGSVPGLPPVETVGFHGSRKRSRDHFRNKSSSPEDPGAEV
UniProt Q8NBM4: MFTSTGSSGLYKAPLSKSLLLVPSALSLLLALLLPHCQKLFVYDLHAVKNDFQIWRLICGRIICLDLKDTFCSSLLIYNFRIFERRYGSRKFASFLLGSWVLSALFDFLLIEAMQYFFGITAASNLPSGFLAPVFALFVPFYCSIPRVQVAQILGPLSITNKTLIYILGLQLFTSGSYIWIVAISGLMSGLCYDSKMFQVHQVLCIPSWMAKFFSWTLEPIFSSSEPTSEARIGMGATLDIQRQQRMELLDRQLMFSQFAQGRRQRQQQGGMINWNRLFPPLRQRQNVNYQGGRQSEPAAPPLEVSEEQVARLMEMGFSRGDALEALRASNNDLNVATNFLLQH
UniProt P68363, whole entry, looked up: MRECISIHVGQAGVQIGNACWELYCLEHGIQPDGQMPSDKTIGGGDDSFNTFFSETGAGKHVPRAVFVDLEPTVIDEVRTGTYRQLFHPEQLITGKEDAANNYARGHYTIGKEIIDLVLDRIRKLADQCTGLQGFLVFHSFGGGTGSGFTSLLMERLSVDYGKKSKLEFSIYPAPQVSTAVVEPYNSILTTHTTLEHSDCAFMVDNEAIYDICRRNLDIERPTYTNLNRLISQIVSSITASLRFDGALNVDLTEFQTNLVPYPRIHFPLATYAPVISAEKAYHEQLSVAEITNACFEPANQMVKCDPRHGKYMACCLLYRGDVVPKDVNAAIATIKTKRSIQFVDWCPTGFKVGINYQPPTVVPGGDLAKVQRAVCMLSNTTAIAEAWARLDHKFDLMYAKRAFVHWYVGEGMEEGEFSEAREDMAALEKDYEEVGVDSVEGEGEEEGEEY
UniProt P07437, whole entry, looked up: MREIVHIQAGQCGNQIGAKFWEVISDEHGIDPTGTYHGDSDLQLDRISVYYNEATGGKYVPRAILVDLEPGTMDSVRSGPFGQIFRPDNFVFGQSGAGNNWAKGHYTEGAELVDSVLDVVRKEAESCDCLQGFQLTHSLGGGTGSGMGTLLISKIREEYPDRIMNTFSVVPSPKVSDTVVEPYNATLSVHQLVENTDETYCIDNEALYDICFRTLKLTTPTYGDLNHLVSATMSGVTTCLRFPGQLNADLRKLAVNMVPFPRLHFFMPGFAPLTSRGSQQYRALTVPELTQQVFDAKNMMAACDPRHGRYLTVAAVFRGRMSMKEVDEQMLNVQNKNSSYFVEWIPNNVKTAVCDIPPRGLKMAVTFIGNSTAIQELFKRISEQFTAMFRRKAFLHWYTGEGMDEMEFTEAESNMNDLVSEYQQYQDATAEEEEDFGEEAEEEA
UniProt Q3KQV9: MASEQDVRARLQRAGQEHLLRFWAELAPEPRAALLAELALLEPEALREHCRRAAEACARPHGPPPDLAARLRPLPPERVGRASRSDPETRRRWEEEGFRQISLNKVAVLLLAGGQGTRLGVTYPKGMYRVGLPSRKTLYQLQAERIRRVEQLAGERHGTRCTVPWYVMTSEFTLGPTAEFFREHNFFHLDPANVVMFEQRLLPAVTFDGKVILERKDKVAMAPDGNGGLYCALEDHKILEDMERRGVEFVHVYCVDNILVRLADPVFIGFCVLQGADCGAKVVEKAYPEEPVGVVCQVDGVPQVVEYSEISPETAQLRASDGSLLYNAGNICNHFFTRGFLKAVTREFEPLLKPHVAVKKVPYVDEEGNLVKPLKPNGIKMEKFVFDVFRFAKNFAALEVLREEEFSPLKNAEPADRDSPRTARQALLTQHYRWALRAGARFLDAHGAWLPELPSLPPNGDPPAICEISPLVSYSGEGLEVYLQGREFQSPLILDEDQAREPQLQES

Assays:
Assay in all cases: log2 fold change, soluble protein after heating vs DMSO (PISA); higher = thermal stabilisation; K562 cells, 10 uM, 30 min; active = over 0.2 and 3.5 SD of the protein, either way, in both replicates (recomputed)
[1] = compound: CC1=C(C=C(C=C1)NC(=O)C2=CC(=CC=C2)C(C)(C)C#N)NC3=CC4=C(C=C3)N=CN(C4=O)C
Summary of the method: (§1)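 Soluble protein was quantified by TMTpro 16plex LC-MS/MS after channel sums were equalised. It was obtained as the supernatant after 21,000xg for 90 min from pooled aliquots of K562 cells (2×10^6 cells/mL, 10 μM compound, 30 min) heated for 3 min across 48°C-58°C and extracted in PBS with 0.5% NP-40 at 4°C. Thermal stability values are relative to control samples and come from duplicates. They are given as log2 fold changes.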

[2] = compound: CC1=C(C=C(C=C1)NC(=O)C2=CC(=CC=C2)N(C)C)NC(=O)C3=CC=C(C=C3)O
Summary of the method: as §1

[3] = compound: CC1=CC=C(C=C1)SC2=C3C=C(SC3=CN=C2)C(=O)N
Summary of the method: as §1

[4] = compound: CC1=NC(=CC=C1)C2=C(N=C(N2)C(C)(C)C)C3=CC4=NC=CN=C4C=C3
Summary of the method: as §1

Nexturastat A = compound: CCCCN(Cc1ccc(C(=O)NO)cc1)C(=O)Nc1ccccc1 [Nexturastat A]
Summary of the method: as §1

vemurafenib = compound: CCCS(=O)(=O)Nc1ccc(F)c(C(=O)c2c[nH]c3ncc(-c4ccc(Cl)cc4)cc23)c1F [vemurafenib]
Summary of the method: as §1

[5] = compound: CCCS(=O)(=O)Nc1ccc(F)c(C(=O)c2c[nH]c3ncc(Cl)cc23)c1F
Summary of the method: as §1

[6] = compound: CCCc1cc(C)[nH]c(=O)c1CNC(=O)c1cc(-c2ccnc(N3CCN(C)CC3)c2)cc2c1cnn2C(C)C
Summary of the method: as §1

givinostat = compound: CCN(CC)Cc1ccc2cc(COC(=O)Nc3ccc(C(=O)NO)cc3)ccc2c1 [givinostat]
Summary of the method: as §1

barasertib = compound: CCN(CCCOc1ccc2c(Nc3cc(CC(=O)Nc4cccc(F)c4)[nH]n3)ncnc2c1)CCOP(=O)(O)O [barasertib]
Summary of the method: as §1

[7] = compound: CC[C@@H]1C(=O)N(C)c2cnc(Nc3ccc(C(=O)NC4CCN(C)CC4)cc3OC)nc2N1C1CCCC1
Summary of the method: as §1

volasertib = compound: CC[C@@H]1C(=O)N(C)c2cnc(Nc3ccc(C(=O)N[C@H]4CC[C@H](N5CCN(CC6CC6)CC5)CC4)cc3OC)nc2N1C(C)C [volasertib]
Summary of the method: as §1

[8] = compound: CC[C@H](C)N1C=C(C2=C(C=C(C=C21)C3=CN=C(C=C3)N4CCNCC4)C(=O)NCC5=C(C=C(NC5=O)C)C)C
Summary of the method: as §1

epoxomicin = compound: CC[C@H](C)[C@@H](C(=O)N[C@@H]([C@@H](C)O)C(=O)N[C@@H](CC(C)C)C(=O)[C@]1(CO1)C)NC(=O)[C@H]([C@@H](C)CC)N(C)C(=O)C [epoxomicin]
Summary of the method: as §1

[9] = compound: CCn1c(C(=O)N(C2CC2)C2CC2)cc2c3c(ncn3C)c(Nc3cc(C)n(C)n3)nc21
Summary of the method: as §1

[10] = compound: CCn1cc(-c2ccnc3[nH]c(-c4cccc(CN(C)C)c4)cc23)c(-c2ccc(NC(=O)N(C)C)cc2)n1
Summary of the method: as §1

[11] = compound: CN(C)CC(=O)Nc1ccc2[nH]c(=O)c3ccccc3c2c1
Summary of the method: as §1

rosiglitazone = compound: CN(CCOC1=CC=C(C=C1)C[C@H]2C(=O)NC(=O)S2)C3=CC=CC=N3 (racemic) [rosiglitazone]
Summary of the method: as §1

[12] = compound: CN1C2=C(C3=C1C(=O)N(N=C3)CC4=CC(=CC=C4)N)SC(=C2)S(=O)C
Summary of the method: as §1

[13] = compound: CN1CCC(CNc2ccc3ncc(-c4cccc(OC(F)(F)F)c4)n3n2)CC1
Summary of the method: as §1

Measured: log2 fold change

UBE2N (UniProt P61088)
inactive: [1] 0.042 | [2] -0.052 | [3] 0.119 | [4] 0.035 | Nexturastat A -0.067 | vemurafenib 0 | [5] -0.022 | [6] -0.053 | givinostat -0.018 | barasertib 0.037 | [7] -0.011 | volasertib -0.008 | [8] -0.01 | epoxomicin 0.049 | [9] 0.008 | [10] 0.083 | [11] 0.013 | rosiglitazone 0.04 | [12] -0.021 | [13] -0.054

TUBA3C (UniProt P0DPH7)
inactive: [1] -0.004 | [2] 0.002 | [3] 0.099 | [4] -0.008 | Nexturastat A -0.099 | vemurafenib -0.077 | [5] -0.04 | [6] -0.007 | givinostat -0.09 | barasertib -0.006 | [7] -0.037 | volasertib -0.07 | [8] 0.005 | epoxomicin 0.07 | [9] -0.015 | [10] -0.028 | [11] -0.021 | rosiglitazone 0.04 | [12] -0.093 | [13] -0.179

UBA2 (UniProt Q9UBT2)
inactive: [1] 0.067 | [2] -0.023 | [3] -0.011 | [4] 0.035 | Nexturastat A -0.063 | vemurafenib 0.026 | [5] 0.046 | [6] -0.036 | givinostat -0.034 | barasertib 0.025 | [7] -0.015 | volasertib -0.017 | [8] -0.003 | epoxomicin 0.048 | [9] 0.004 | [10] -0.047 | [11] 0.009 | rosiglitazone 0.026 | [12] -0.074 | [13] 0.077

TXNDC12 (UniProt O95881)
inactive: [1] -0.119 | [2] 0.002 | [3] -0.113 | [4] -0.005 | Nexturastat A -0.048 | vemurafenib 0.047 | [5] -0.139 | [6] -0.061 | givinostat -0.026 | barasertib 0.002 | [7] -0.011 | volasertib 0.009 | [8] -0.006 | epoxomicin -0.015 | [9] 0.033 | [10] 0.032 | [11] -0.03 | rosiglitazone -0.027 | [12] 0.078 | [13] 0.103

TYMS (UniProt P04818)
inactive: [1] -0.068 | [2] -0.015 | [3] 0.025 | [4] 0 | Nexturastat A 0.052 | vemurafenib 0.061 | [5] 0.029 | [6] 0.021 | givinostat 0.069 | barasertib 0.059 | [7] -0.066 | volasertib -0.053 | [8] 0.036 | epoxomicin 0.054 | [9] 0.012 | [10] 0.009 | [11] 0.056 | rosiglitazone 0.004 | [12] -0.014 | [13] -0.01

TUBB4B (UniProt P68371)
inactive: [1] 0.032 | [2] 0.012 | [3] 0.028 | [4] 0.021 | Nexturastat A -0.086 | vemurafenib 0 | [5] 0.026 | [6] -0.017 | givinostat -0.063 | barasertib -0.009 | [7] -0.032 | volasertib 0.044 | [8] 0.007 | epoxomicin 0.024 | [9] -0.01 | [10] 0.018 | [11] 0.011 | rosiglitazone 0.003 | [12] -0.043 | [13] -0.061

TUFM (UniProt P49411)
inactive: [1] 0 | [2] -0.066 | [3] 0.011 | [4] 0.019 | Nexturastat A -0.079 | vemurafenib 0.028 | [5] 0.044 | [6] 0.073 | givinostat 0.018 | barasertib 0.055 | [7] 0.033 | volasertib 0.001 | [8] 0.094 | epoxomicin 0.065 | [9] 0.019 | [10] -0.127 | [11] 0.047 | rosiglitazone 0.061 | [12] -0.135 | [13] -0.164

Two successive entries from above:
TXNDC12 (UniProt O95881)
inactive: [1] -0.119 | [2] 0.002 | [3] -0.113 | [4] -0.005 | Nexturastat A -0.048 | vemurafenib 0.047 | [5] -0.139 | [6] -0.061 | givinostat -0.026 | barasertib 0.002 | [7] -0.011 | volasertib 0.009 | [8] -0.006 | epoxomicin -0.015 | [9] 0.033 | [10] 0.032 | [11] -0.03 | rosiglitazone -0.027 | [12] 0.078 | [13] 0.103

TYMS (UniProt P04818)
inactive: [1] -0.068 | [2] -0.015 | [3] 0.025 | [4] 0 | Nexturastat A 0.052 | vemurafenib 0.061 | [5] 0.029 | [6] 0.021 | givinostat 0.069 | barasertib 0.059 | [7] -0.066 | volasertib -0.053 | [8] 0.036 | epoxomicin 0.054 | [9] 0.012 | [10] 0.009 | [11] 0.056 | rosiglitazone 0.004 | [12] -0.014 | [13] -0.01

Continuation:

UBA5 (UniProt Q9GZZ9)
inactive: [1] -0.003 | [2] -0.009 | [3] 0.052 | [4] 0.097 | Nexturastat A -0.055 | vemurafenib -0.008 | [5] 0.078 | [6] 0.007 | givinostat -0.033 | barasertib -0.004 | [7] -0.015 | volasertib 0.032 | [8] 0.024 | epoxomicin 0.041 | [9] 0.009 | [10] -0.066 | [11] -0.021 | rosiglitazone 0.021 | [12] -0.052 | [13] -0.033

TXNL4A (UniProt P83876)
inactive: [1] -0.047 | [2] -0.002 | [3] -0.04 | [4] 0.001 | Nexturastat A 0.027 | vemurafenib 0.019 | [5] -0.016 | [6] -0.055 | givinostat 0.009 | barasertib 0.005 | [7] 0.017 | volasertib 0.057 | [8] -0.011 | epoxomicin -0.029 | [9] 0.022 | [10] -0.043 | [11] -0.048 | rosiglitazone 0.024 | [12] -0.003 | [13] -0.083

TSNAX (UniProt Q99598)
inactive: [1] -0.019 | [2] -0.012 | [3] -0.01 | [4] 0.011 | Nexturastat A -0.004 | vemurafenib -0.011 | [5] 0.007 | [6] -0.027 | givinostat -0.037 | barasertib -0.009 | [7] 0.037 | volasertib 0.079 | [8] -0.029 | epoxomicin 0.014 | [9] 0.006 | [10] -0.022 | [11] -0.006 | rosiglitazone -0.005 | [12] -0.058 | [13] 0.01

TXN (UniProt P10599)
inactive: [1] 0.003 | [2] 0.009 | [3] -0.041 | [4] 0.015 | Nexturastat A -0.03 | vemurafenib 0.001 | [5] -0.054 | [6] 0.058 | givinostat -0.015 | barasertib 0.034 | [7] -0.017 | volasertib 0.115 | [8] -0.033 | epoxomicin 0.032 | [9] 0.056 | [10] -0.052 | [11] -0.032 | rosiglitazone -0.037 | [12] -0.027 | [13] -0.029

TSSC4 (UniProt Q9Y5U2)
inactive: [1] -0.059 | [2] 0.075 | [3] -0.028 | [4] -0.019 | Nexturastat A 0.069 | vemurafenib -0.142 | [5] -0.082 | [6] -0.08 | givinostat -0.03 | barasertib -0.036 | [7] 0.135 | volasertib 0.273 | [8] -0.048 | epoxomicin -0.137 | [9] 0.087 | [10] 0.088 | [11] -0.001 | rosiglitazone -0.039 | [12] 0.025 | [13] -0.085

UBAC2 (UniProt Q8NBM4)
inactive: [1] 0.08 | [2] -0.072 | [3] 0.013 | [4] 0.056 | Nexturastat A -0.013 | vemurafenib 0.023 | [5] 0.107 | [6] -0.124 | givinostat 0.075 | barasertib 0.033 | [7] -0.019 | volasertib -0.129 | [8] -0.025 | epoxomicin -0.016 | [9] 0.014 | [10] -0.02 | [11] 0.664 | rosiglitazone -0.006 | [12] 0.102 | [13] -0.06

TUBA1B (UniProt P68363)
inactive: [1] 0.005 | [2] -0.005 | [3] 0.01 | [4] 0.022 | Nexturastat A -0.124 | vemurafenib -0.02 | [5] -0.011 | [6] -0.028 | givinostat -0.02 | barasertib -0.011 | [7] -0.029 | volasertib 0.059 | [8] -0.022 | epoxomicin -0.016 | [9] 0.008 | [10] -0.064 | [11] -0.006 | rosiglitazone 0.034 | [12] -0.052 | [13] -0.16

TUBB (UniProt P07437)
inactive: [1] -0.012 | [2] 0.017 | [3] -0.023 | [4] 0.056 | Nexturastat A -0.019 | vemurafenib -0.015 | [5] -0.067 | [6] 0.003 | givinostat 0.003 | barasertib -0.021 | [7] -0.025 | volasertib 0.151 | [8] 0.011 | epoxomicin 0.017 | [9] 0.005 | [10] 0.016 | [11] -0.003 | rosiglitazone 0.022 | [12] -0.062 | [13] -0.126

UAP1L1 (UniProt Q3KQV9)
inactive: [1] -0.028 | [2] 0 | [3] -0.008 | [4] 0.041 | Nexturastat A -0.025 | vemurafenib 0.02 | [5] -0.027 | [6] -0.001 | givinostat -0.016 | barasertib 0.006 | [7] -0.044 | volasertib 0.025 | [8] 0.029 | epoxomicin 0.019 | [9] -0.018 | [10] 0.062 | [11] -0.037 | rosiglitazone 0.039 | [12] -0.06 | [13] -0.034
